About 820 (0.21%) of roughly 390,000 compounds were called active. Inconclusive results, whose numbers are uncertain, are shown with a selection of clear calls. The call rests on the fitted dose curve; in most records, active means well fitted inhibition curve with a large enough effect; inconclusive means small, poorly fitted or top-dose-only effect, or another doubt; inactive means no such curve, though single readings can be large or run the other way. A potency beside an inconclusive call is a rough fit, not a confirmed value.
These compounds were tested against Histone acetyltransferase KAT2A (Homo sapiens) (UniProt Q92830) (assay: qHTS Assay for Inhibitors of GCN5L2). Conditions: GCN5L2 HAT assay, ThioGlo1 CoA-SH fluorescence; activity change, negative = inhibition: at 58.9 µM (top of the series) unless noted.
Summary of the method: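 Titration-based screen in which CoA formation is detected via maleimide probe ThioGlo1 (50uM) turning fluorescent on thiol reaction; substrates H3(1-25) 75uM and acetyl-CoA 70uM, GCN5L2 20nM, 20 min incubation at room temperature.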
On the % scale 0 is the no-effect control and ±100 the full control effect; potency means the concentration at half of the fitted maximal effect.

Chains of the proteins cited; added tags and fusions are not shown.
UniProt Q92830, whole entry, looked up: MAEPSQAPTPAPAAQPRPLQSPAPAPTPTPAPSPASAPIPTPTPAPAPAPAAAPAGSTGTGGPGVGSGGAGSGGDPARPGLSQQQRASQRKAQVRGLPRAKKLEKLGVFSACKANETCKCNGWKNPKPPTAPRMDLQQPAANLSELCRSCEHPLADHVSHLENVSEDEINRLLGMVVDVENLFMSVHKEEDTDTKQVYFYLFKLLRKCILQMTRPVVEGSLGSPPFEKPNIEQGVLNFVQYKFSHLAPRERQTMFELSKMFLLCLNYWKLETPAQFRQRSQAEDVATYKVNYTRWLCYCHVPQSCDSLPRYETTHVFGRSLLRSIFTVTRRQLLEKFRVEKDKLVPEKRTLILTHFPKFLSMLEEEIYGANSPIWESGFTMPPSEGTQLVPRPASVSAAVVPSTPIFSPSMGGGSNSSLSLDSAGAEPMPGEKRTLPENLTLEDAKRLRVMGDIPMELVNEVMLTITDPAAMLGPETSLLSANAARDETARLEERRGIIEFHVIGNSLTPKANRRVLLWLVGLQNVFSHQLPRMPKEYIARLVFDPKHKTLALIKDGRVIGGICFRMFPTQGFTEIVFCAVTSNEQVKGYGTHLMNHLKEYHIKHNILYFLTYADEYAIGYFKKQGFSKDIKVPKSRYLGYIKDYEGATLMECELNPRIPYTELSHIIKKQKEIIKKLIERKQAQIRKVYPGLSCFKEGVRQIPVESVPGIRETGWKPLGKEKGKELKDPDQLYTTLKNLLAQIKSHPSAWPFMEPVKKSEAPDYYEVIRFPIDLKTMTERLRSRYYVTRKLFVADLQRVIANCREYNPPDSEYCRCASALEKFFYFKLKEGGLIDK

| SMILES | Potency | activity change, negative = inhibition |
| --- | --- | --- |
| Nc1nc(N)nc(-c2ccccn2)n1 | inconclusive: 25.1 µM [inhibitor, single point] | – |
| COc1ccc(N2CCN(C(=O)c3c(-c4c(F)cccc4Cl)noc3C)CC2)cc1 | inconclusive: 3.98 µM [inhibitor, single point] | – |
| O=C1c2ccccc2C(=O)c2c1ccc(O)c2O | inconclusive: 28.2 µM [inhibitor, partial curve] | – |
| CCC(NC(=O)Nc1nnc(C(F)(F)F)s1)(C(F)(F)F)C(F)(F)F | inconclusive: 0.891 µM [inhibitor, full curve] | – |
| O=C(c1ccco1)N1CCN(c2ncnc3sc4c(c23)CCC4)CC1 | – | inactive: -3.9% |
| COc1ccc(-c2nc3ccc(C(=O)NCC(OC)OC)cc3nc2-c2ccc(OC)c(OC)c2)cc1OC | inconclusive: 17.8 µM [inhibitor, partial curve] | – |
| CC(=O)N1CCN(c2ccc(NS(=O)(=O)c3ccc(C)cc3)cc2)CC1 | – | inactive: -4.06% |
| Cc1cccc(NS(=O)(=O)c2ccc3c(c2)NC(=O)CO3)c1C | inconclusive: 0.112 µM [inhibitor, full curve, poor fit] | – |
| Cc1ccc(/C=N/N2CCCCC2)o1 | inconclusive: 0.708 µM [inhibitor, single point] | – |
| Cc1cc2oc(=O)cc(CN(C)Cc3cccc(F)c3)c2cc1C | – | inactive: -3.46% |
| COc1ccc(NC(=O)Nc2cccs2)cc1OC | – | inactive: -2.17% |
| O=C(NCc1ccc(Cl)cc1)c1ccc2c(c1)NC(=O)C(CS(=O)(=O)Cc1ccc(F)cc1Cl)N2 (stereo not given) | – | inactive: 5.26% |
| COc1ccc(NC(=O)c2cc(-c3ccccn3)nc3ccccc23)cc1S(=O)(=O)N(C)C | – | inactive: -4.06% |
| Cc1nc(N/N=C/c2ccccn2)sc1C | – | inactive: -1.58% |
| CCOC(=O)c1[nH]c2ccc(OCC)cc2c1NC(=O)CN1CCC2(CC1)OCCO2 | inconclusive: 11.2 µM [inhibitor, partial curve] | – |
| N#Cc1c(-c2ccco2)cc(-c2ccc(F)cc2)nc1N | – | inactive: -11.6% |
| COc1ccc(-c2cc(C(=O)Nc3cnn(Cc4ccccc4C)c3)no2)cc1OC | inconclusive: 7.08 µM [inhibitor, single point] | – |
| COC(=O)c1c(NC(=O)c2ccc(OC(C)C)cc2)sc2c1CC(C)(C)NC2(C)C | inconclusive: 39.8 µM [inhibitor, single point] | – |
| O=C(N/N=C/c1cc(Br)cc([N+](=O)[O-])c1O)c1ccc(NC(=O)c2ccc(F)cc2)cc1 | inconclusive: 20 µM [inhibitor, partial curve] | – |
| COc1ccc2cc3cc(C(=O)NCCN4CCN(Cc5ccccc5)CC4)oc3nc2c1 | inconclusive: 39.8 µM [inhibitor, single point] | – |
| Cc1cc(C)c(S(=O)(=O)N2CCN(C(=O)N(C)C)CC2)c(C)c1 | inconclusive: 39.8 µM [inhibitor, single point] | – |
| CNc1nc(Cl)c(SC)c(NCc2cccc(OC)c2)n1 | inconclusive: 6.31 µM [inhibitor, single point] | – |

At a glance, some entries already given.

| SMILES | Potency | activity change, negative = inhibition |
| --- | --- | --- |
| Nc1nc(N)nc(-c2ccccn2)n1 | inconclusive: 25.1 µM [inhibitor, single point] | – |
| COc1ccc(N2CCN(C(=O)c3c(-c4c(F)cccc4Cl)noc3C)CC2)cc1 | inconclusive: 3.98 µM [inhibitor, single point] | – |
| O=C1c2ccccc2C(=O)c2c1ccc(O)c2O | inconclusive: 28.2 µM [inhibitor, partial curve] | – |
| CCC(NC(=O)Nc1nnc(C(F)(F)F)s1)(C(F)(F)F)C(F)(F)F | inconclusive: 0.891 µM [inhibitor, full curve] | – |
| O=C(c1ccco1)N1CCN(c2ncnc3sc4c(c23)CCC4)CC1 | – | inactive: -3.9% |
| COc1ccc(-c2nc3ccc(C(=O)NCC(OC)OC)cc3nc2-c2ccc(OC)c(OC)c2)cc1OC | inconclusive: 17.8 µM [inhibitor, partial curve] | – |
| CC(=O)N1CCN(c2ccc(NS(=O)(=O)c3ccc(C)cc3)cc2)CC1 | – | inactive: -4.06% |
| Cc1cccc(NS(=O)(=O)c2ccc3c(c2)NC(=O)CO3)c1C | inconclusive: 0.112 µM [inhibitor, full curve, poor fit] | – |
| Cc1ccc(/C=N/N2CCCCC2)o1 | inconclusive: 0.708 µM [inhibitor, single point] | – |
| Cc1cc2oc(=O)cc(CN(C)Cc3cccc(F)c3)c2cc1C | – | inactive: -3.46% |
| COc1ccc(NC(=O)Nc2cccs2)cc1OC | – | inactive: -2.17% |
| O=C(NCc1ccc(Cl)cc1)c1ccc2c(c1)NC(=O)C(CS(=O)(=O)Cc1ccc(F)cc1Cl)N2 (stereo not given) | – | inactive: 5.26% |
| COc1ccc(NC(=O)c2cc(-c3ccccn3)nc3ccccc23)cc1S(=O)(=O)N(C)C | – | inactive: -4.06% |
| Cc1nc(N/N=C/c2ccccn2)sc1C | – | inactive: -1.58% |
| CCOC(=O)c1[nH]c2ccc(OCC)cc2c1NC(=O)CN1CCC2(CC1)OCCO2 | inconclusive: 11.2 µM [inhibitor, partial curve] | – |
| N#Cc1c(-c2ccco2)cc(-c2ccc(F)cc2)nc1N | – | inactive: -11.6% |
| COc1ccc(-c2cc(C(=O)Nc3cnn(Cc4ccccc4C)c3)no2)cc1OC | inconclusive: 7.08 µM [inhibitor, single point] | – |
| COC(=O)c1c(NC(=O)c2ccc(OC(C)C)cc2)sc2c1CC(C)(C)NC2(C)C | inconclusive: 39.8 µM [inhibitor, single point] | – |

(continued)

| SMILES | Potency | activity change, negative = inhibition |
| --- | --- | --- |
| CC(=O)[C@]1(O)Cc2c(O)c3c(c(O)c2[C@@H](O[C@H]2C[C@H](N)[C@H](O)[C@H](C)O2)C1)C(=O)c1ccccc1C3=O | inconclusive: 22.4 µM [inhibitor, single point] | – |
| CCOc1cc(/C=N/Nc2ccc(C(=O)O)cc2)ccc1OC(=O)c1ccccc1C | inconclusive: 2.51 µM [inhibitor, partial curve, poor fit] | – |
| N=C1S/C(=C\c2ccc(O)cc2)C(=O)N1c1ccc(F)cc1 | inconclusive: 10 µM [inhibitor, partial curve] | – |
| COC(=O)[C@@H]1C[C@@H]2CC[C@@H](O)C[C@@H]2N1Cc1ccc(N2CCN(C)CC2)cc1 | inconclusive: 3.98 µM [inhibitor, partial curve, poor fit] | – |
| CCNc1ncc2nc(-c3ccccc3)c(=O)n(C3CC3)c2n1 | inconclusive: 22.4 µM [inhibitor, partial curve, poor fit] | – |
| COc1cc(CNCc2ccccn2)ccc1OCc1cccc(Cl)c1 | inconclusive: 20 µM [inhibitor, partial curve] | – |
| Cc1c(C)n(CC(O)CN2C(=O)c3ccccc3S2(=O)=O)c2ccccc12 (stereo not given) | inconclusive: 39.8 µM [inhibitor, single point] | – |
| COc1ccccc1NC(=O)NCCN1CCCCC1 | – | inactive: 1.12% |
| Cn1c(=O)[nH]c(=O)c2c1[nH]c(=S)n2Cc1ccc(Cl)cc1 | inconclusive: 28.2 µM [inhibitor, single point] | – |
| N=C1C(c2nc3ccccc3s2)=C(O)CN1C1CCC(O)CC1 (stereo not given) | inconclusive: 5.01 µM [inhibitor, partial curve, poor fit] | – |
| O=C(Nc1ccc(C(=O)O)cc1)/C(=C\C=C\c1ccccc1)NC(=O)c1ccccc1Br | inconclusive: 11.2 µM [inhibitor, partial curve] | – |
| Cc1nn(-c2ccccc2)c(C)c1NC(=O)COC(=O)c1ccc(S(=O)(=O)C(F)F)cc1 | inconclusive: 28.2 µM [inhibitor, single point] | – |
| Cc1cccc(OCc2nnc(SCCC(=O)O)n2-c2ccccc2)c1 | inconclusive: 22.4 µM [inhibitor, partial curve] | – |
| Cn1cc(Br)c(NC(=O)/C=C/C(=O)O)n1 | inconclusive: 25.1 µM [inhibitor, single point] | – |
| CCOC(=O)c1cc2c(=O)n3ccccc3nc2n(Cc2ccco2)c1=NC(=O)c1cccc(Br)c1 | inconclusive: 25.1 µM [inhibitor, single point] | – |
| CC(C)c1ccc(S(=O)(=O)Nc2ccc(N3CCOCC3)cc2)cc1 | – | inactive: -1.1% |
| COc1cccc(OCc2cc(C(=O)N(Cc3nccn3C)C(C)C)no2)c1 | inconclusive: 0.112 µM [inhibitor, full curve, poor fit] | – |
| C/C(Cc1ccccc1)=N\NC(=O)CNC(=O)c1ccccc1 | – | inactive: -13.2% |
| COc1ccc(NS(=O)(=O)c2ccc3c(c2)[C@H]2C=CC[C@H]2[C@@H](c2ccc(C(=O)O)cc2)N3)cc1 | inconclusive: 22.4 µM [inhibitor, single point] | – |
| CC(=O)c1ccc(NC(=O)c2ccc3nc(-c4ccco4)c(-c4ccco4)nc3c2)cc1 | inconclusive: 31.6 µM [inhibitor, partial curve, poor fit] | – |
| CCCNC(=O)c1nn2c(C(F)(F)F)cc(-c3ccccc3)nc2c1Br | – | inactive: -1.95% |
| CCC(=O)Nc1ccc(CC)cc1-c1nc2ccccc2n(CC(=O)c2ccc(OC)cc2)c1=O | inconclusive: 39.8 µM [inhibitor, single point] | – |

Random excerpt: two entries already listed

| SMILES | Potency | activity change, negative = inhibition |
| --- | --- | --- |
| O=C(Nc1ccc(C(=O)O)cc1)/C(=C\C=C\c1ccccc1)NC(=O)c1ccccc1Br | inconclusive: 11.2 µM [inhibitor, partial curve] | – |
| COC(=O)[C@@H]1C[C@@H]2CC[C@@H](O)C[C@@H]2N1Cc1ccc(N2CCN(C)CC2)cc1 | inconclusive: 3.98 µM [inhibitor, partial curve, poor fit] | – |

More structures

| SMILES | Potency | activity change, negative = inhibition |
| --- | --- | --- |
| c1ccc(CSc2ncnc3c2sc2nc(N4CCOCC4)c4c(c23)CCCC4)cc1 | inconclusive: 14.1 µM [inhibitor, partial curve, poor fit] | – |
| CC1CCCCN1CCCNc1ccc(C(CC(N)=O)NC(=O)Cc2cccc3ccccc23)cc1[N+](=O)[O-] (stereo not given) | inconclusive: 2.51 µM [inhibitor, partial curve] | – |
| CC1CN(C(=O)c2cccc(S(=O)(=O)N3CCN(c4ccc(F)cc4)CC3)c2)CC(C)O1 (stereo not given) | inconclusive: 0.141 µM [inhibitor, full curve, poor fit] | – |
| Cc1cn2c(-c3ccncc3)nnc2s1 | inconclusive: 39.8 µM [inhibitor, single point] | – |
| CC[C@H](C)C(=O)O[C@H]1CCC=C2C=C[C@H](C)[C@H](CC[C@@H]3C[C@@H](O)CC(=O)O3)[C@H]21 | inactive | – |
| C=CCn1c(SCc2ccc(C(=O)O)cc2)nc2sc(C)c(C)c2c1=O | – | inactive: -3.59% |
| Cc1cc(C)nc(NC(=O)/C=C/c2ccc(Cl)cc2Cl)c1 | inconclusive: 0.708 µM [inhibitor, single point] | – |
| COc1ccc(NC(=O)c2sc3ncn(CC(=O)N4CCN(c5ccccn5)CC4)c(=O)c3c2C)c(OC)c1 | inconclusive: 39.8 µM [inhibitor, single point] | – |
| CCc1nn2c(=O)c(S(=O)(=O)Nc3ccccc3)c(C)nc2s1 | – | inactive: -4.39% |
| Cc1nc(CNS(=O)(=O)c2ccc(Br)cc2)cs1 | inconclusive: 20 µM [inhibitor, partial curve] | – |
| O=C(COC(=O)c1cc(S(=O)(=O)N2CCc3ccccc3C2)ccc1Cl)NCc1ccco1 | – | inconclusive: -34.7% [inhibitor] |
| O=C(NCCc1ccc(Cl)cc1)C1CCCN1C(=O)NCc1ccccc1 (stereo not given) | inconclusive: 39.8 µM [inhibitor, single point] | – |
| O=C(CCCn1cncn1)N1CCCC(N2CCN(c3ccccc3F)CC2)C1 (stereo not given) | inconclusive: 0.398 µM [inhibitor, full curve] | – |
| CCOc1ccc(NC(=O)Cn2cc(C(=O)c3ccc(C)cc3)c(=O)c3cc4c(cc32)OCO4)cc1 | – | inactive: 0.492% |
| CCOC(=O)Cn1c(-c2cccnc2Cl)nc2cc(C)c(C)cc21 | – | inactive: 0.0117% |
| CCOC(=O)c1ccc(NC(=O)CSc2ncc(S(=O)(=O)c3ccc(C)c(Cl)c3)c(=O)[nH]2)cc1 | inconclusive: 39.8 µM [inhibitor, single point] | – |
| CC(OC(=O)c1nn(C)c(=O)c2ccccc12)C(=O)NC1CCCCC1C (stereo not given) | – | inactive: 1.17% |
| CCC1CCCCN1C(=O)COc1ccc(N(C)S(=O)(=O)c2ccc(C)cc2)cc1 (stereo not given) | inconclusive: 0.447 µM [inhibitor, single point] | – |
| Cc1cc(S(=O)(=O)NCCc2csc(-c3cccc(F)c3)n2)ccc1F | – | inactive: -5.31% |
| CCOC(=O)Cn1c(S(=O)(=O)Cc2ccccc2Cl)nc(-c2ccccc2)c1-c1ccccc1 | inconclusive: 3.55 µM [inhibitor, full curve, poor fit] | – |
| Cc1onc(-c2c(F)cccc2Cl)c1C(=O)Nc1ccc(Cl)c(S(=O)(=O)N(C)C)c1 | inconclusive: 0.794 µM [inhibitor, full curve, poor fit] | – |
